PubChem BioAssay AID504444 (National Center for Advancing Translational Sciences (NCATS), 2011)
Among all 360,000 compounds or so, about 7,500 (2.1%) were called active. This list was built around the results that the source calls inconclusive (neither active nor inactive); the mix of calls is not that of the screen. Calls come from the whole dose curve; as a rule, active = well fitted inhibition curve with a large enough effect; inconclusive = small, poorly fitted or top-dose-only effect, or effect the other way; inactive = flat fitted curve, though single readings scatter. Potencies beside an inconclusive call are fits to weak or partial responses and may not hold up.

Assay: Nrf2 qHTS screen for inhibitors; note: nearly all actives have a fitted effect of over 60% in size
Settings: A549 ARE-Fluc reporter, luciferase luminescence, 18-24 h; series mostly up to 46 µM
Method in brief: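 Cells were seeded and rested 2 h, then exposed to compounds for 18-24 h. CellTiter-Fluor was read first as a viability measure. BugLite was added 15 min before the final luminescent read of ARE-luciferase activity in A549 cells.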
Potency is the fitted concentration of half-maximal effect.

Structure (SMILES)	Potency
Cc1oc2ncn(C)c(=O)c2c1C(=O)NCCCN1CCCCC1C (stereo not given)	inconclusive: 3.66 µM [activator, partial curve]
Cc1ccccc1OCCCn1c(=O)sc2ccccc21	inconclusive: 14.6 µM [activator, partial curve, poor fit]
COc1ccc(-n2nc(C(=O)Nc3ccc(Cl)cn3)c3c4ccccc4n(C)c3c2=O)cc1	inactive
Cc1ccccc1NC(=O)Cc1nc(COC(=O)c2ccc(Cl)c(S(N)(=O)=O)c2)cs1	inactive
CCc1nnc(NC(=O)CN2CCOCC2)s1	inconclusive: 0.0046 µM [falling, full curve, poor fit]
O=C(COc1ccc([N+](=O)[O-])cc1Cl)Nn1cnnc1	inconclusive: 29.1 µM [activator, partial curve, poor fit]
c1ccc2c(CCNc3ncnc4nc[nH]c34)cccc2c1	inconclusive: 14.6 µM [falling, partial curve, poor fit]
CCN(CC)C(=O)N1CCN(C)CC1	active: 13 µM
COc1ccccc1-c1nn2c(C(F)(F)F)nnc2s1	inactive
COc1cc(C2C3=C(COC3=O)OC(C)(C)Oc3cc4c(cc32)OCO4)cc(OC)c1OC (stereo not given)	inconclusive: 2.06 µM [activator, full curve, poor fit]
COc1ccc(CCNC(=O)CCCn2c(=O)c3cccn3c3cccnc32)c(OC)c1OC	inconclusive: 5.17 µM [falling, full curve]
Cn1nc(C(F)(F)F)c(/C=N/OC(=O)c2ccccc2Cl)c1SCc1ccc(Cl)cc1	active: 20.6 µM
N#CCSc1ccc(-c2nc3ccccc3[nH]2)cn1	inconclusive: 2.59 µM [activator, partial curve, poor fit]
CC(=O)Nc1cc(-c2ccccc2)nn1Cc1ccc(Cl)cc1	inconclusive: 14.6 µM [falling, partial curve, poor fit]
CCOC(=O)c1cc2ccc3ccccc3c2s1	inconclusive: 1.3 µM [activator, full curve]
OCc1ccc(O)c2ncccc12	inconclusive: 29.1 µM [falling, single point]
COc1ccc(CNC(=O)CSc2ccc(Br)cc2)cc1OC	active: 23.1 µM
O=C(NC(=S)Nc1cccc([N+](=O)[O-])c1)C1CCCC1	inactive
CCOC(=O)c1ccc(-c2c(-c3ccccc3OC)sc3ccc(OC)cc23)cc1F	inactive
COc1ccc2c(c1)[nH]c1c(N3CCSCC3)ncnc12	active: 20.6 µM
Cc1cc(NC(=O)COc2ccc3ccccc3c2Br)no1	inconclusive: 14.6 µM [activator, partial curve]
CCOc1ccc(NS(=O)(=O)c2cc(OC)ccc2OC)cc1	inactive
Cc1nn(CCOc2ccccc2)c(=O)n1-c1ccc(F)cc1	inconclusive: 25.9 µM [activator, single point]
COc1ccc(C)cc1NC(=O)CSc1ccc(-c2ccccn2)nn1	active: 3.66 µM

4 compounds picked at random from those above:
Structure (SMILES)	Potency
COc1ccc(C)cc1NC(=O)CSc1ccc(-c2ccccn2)nn1	active: 3.66 µM
N#CCSc1ccc(-c2nc3ccccc3[nH]2)cn1	inconclusive: 2.59 µM [activator, partial curve, poor fit]
O=C(COc1ccc([N+](=O)[O-])cc1Cl)Nn1cnnc1	inconclusive: 29.1 µM [activator, partial curve, poor fit]
COc1ccc(CNC(=O)CSc2ccc(Br)cc2)cc1OC	active: 23.1 µM

Going on with the list.

Structure (SMILES)	Potency
Cn1c(SCC(=O)c2ccc(F)cc2)nnc1-c1ccccc1Br	inactive
Cc1cccc(/C=C/c2onc(C)c2[N+](=O)[O-])n1	active: 14.6 µM
Oc1ccc(CCc2ccccc2F)c2cccnc12	inconclusive: 1.03 µM [activator, full curve, poor fit]
COc1ccc(/C=N/Nc2nc3ccccc3o2)cc1OC	inconclusive: 0.731 µM [activator, partial curve, poor fit]
C=CCNc1nc(N)c(C(=O)Nc2cc(C)on2)s1	inconclusive: 8.2 µM [activator, partial curve]
COc1ccc(Cn2c(C)c(C)c(C#N)c2NC(=O)Nc2cccc(C)c2)cc1	inconclusive: 23.1 µM [falling, single point]
Cc1ccc(SCCN2C(=O)NC(C)(C)C2=O)cc1	inconclusive: 11.6 µM [falling, partial curve]
COc1ccc(CCN(C)CC(=O)Nc2c(C)cc(C)cc2C)cc1OC	inconclusive: 29.1 µM [falling, single point]
O=C(NNC(=S)Nc1ccc(Cl)cc1Cl)c1ccc(N2CCOCC2)c([N+](=O)[O-])c1	inactive
O=C(Nc1ccc2c(c1)OCO2)c1cccc(F)c1	inconclusive: 2.24 µM [activator, partial curve]
O=C(CSc1cn(CCNC(=O)c2ccc3ccccc3c2)c2ccccc12)NCc1ccco1	active: 23.1 µM
COc1ccc(Oc2cc(C(F)(F)F)nc(N(C)C)n2)cc1	inconclusive: 29.1 µM [activator, single point]
O=C(O)c1ccc(/C=N/Nc2ccc(C(F)(F)F)cn2)cc1	inconclusive: 2.59 µM [activator, partial curve]
CC(C)(OC(=O)c1cccs1)c1cc2ccccc2c(=O)o1	inconclusive: 29.1 µM [falling, single point]
CC(Nc1ccc2c(c1)OCCO2)C(=O)N1CCc2ccccc21 (stereo not given)	inconclusive: 5.17 µM [activator, partial curve, poor fit]
CN1CCc2ccc3c4c2[C@]1(C)Cc1cccc(c1-4)OCO3	inactive
COc1cc(OC)cc(-c2nnc(SCC(=O)NCc3cccs3)o2)c1	inactive
COc1ccc(NS(=O)(=O)c2ccc(N3CCOCC3)c(NC(=O)c3ccc(OC)cc3)c2)cc1	inconclusive: 14.6 µM [falling, single point]
COC(=O)Cc1c(C)c2ccc(OCC(=O)N3CCCC(C)C3)c(C)c2oc1=O (stereo not given)	inconclusive: 29.1 µM [falling, single point]
Cc1cc(C)cc(NC(=O)C2CCC(CNS(=O)(=O)c3ccc4c(c3)C(C)(C)C(=O)N4C)CC2)c1 (stereo not given)	inconclusive: 18.4 µM [falling, single point]
CCn1cc(C(=O)NCCc2ccc(C)cc2)c(=O)c2cc(S(=O)(=O)N3CCCCC3)ccc21	inconclusive: 16.4 µM [activator, single point]
COc1ccc(CCNC(=O)c2c(C)oc3ncn(CC(C)C)c(=O)c23)cc1OC	inactive
NC1=NC(=O)C(c2ccccc2)C(=O)N1 (stereo not given)	inactive
COc1ccccc1OCC(=O)Nc1nc(C)c(C)s1	inconclusive: 7.31 µM [activator, partial curve]

Structure (SMILES)	Potency
Cc1ccccc1C(=O)N1CCc2cc(-c3nc(NC(=O)Cc4ccc5c(c4)OCO5)sc3C)ccc21	active: 4.61 µM
COc1ccc(C2C(C(=O)NCC3CCCO3)c3cc(OC)c(OC)cc3C(=O)N2C)cc1OC (stereo not given)	inactive
O=C1CCc2cc(NS(=O)(=O)c3ccc(Cl)cc3)cc3c2N1CC3	inconclusive: 29.1 µM [falling, partial curve, poor fit]
CCOC(=O)C1CCCN(Cc2nc(N)nc(Nc3ccc(OC)cc3)n2)C1 (stereo not given)	inconclusive: 16.4 µM [falling, single point]
COc1cccc(CNC(=O)CN2C(=O)COc3ccc(S(=O)(=O)Nc4ccccc4)cc32)c1	inactive
Cn1c(=O)c2sccc2n2c(CCC(=O)NCc3ccccc3Cl)nnc12	inconclusive: 0.58 µM [falling, full curve, poor fit]
O=C(c1ccc(F)cc1)N1CCCC(c2nc(-c3cccs3)no2)C1 (stereo not given)	inactive
COc1ccc(N2CCCC2)c(NC(=O)c2ccc([N+](=O)[O-])o2)c1	inconclusive: 29.1 µM [falling, single point]
O=C(c1cccs1)N1N=C(c2ccccc2)CC1c1ccccc1 (stereo not given)	inconclusive: 29.1 µM [falling, single point]
CCN(CC)c1ccc(/C=N/N=C(N)N)c(O)c1	inconclusive: 29.1 µM [falling, single point]
CN(C)c1ccc(/C=N/NC(=O)c2ccccc2Cl)cc1	inconclusive: 0.82 µM [activator, full curve]
COc1ccc(-c2nc(Cn3c(SCc4ccccc4F)nc4ccncc43)c(C)o2)cc1OC	inconclusive: 29.1 µM [falling, single point]
CCOC(=O)C1=CN(Cc2cccc(F)c2)S(=O)(=O)NC1c1ccc2ccccc2c1 (stereo not given)	inconclusive: 29.1 µM [falling, single point]
Cc1ccc(NS(=O)(=O)c2ccc(NS(=O)(=O)c3cccs3)cc2)cc1	inconclusive: 25.9 µM [falling, single point]
CC(C)CN(C(=O)COC(=O)c1ccccc1NCc1ccco1)c1c(N)n(Cc2ccccc2)c(=O)[nH]c1=O	inactive
Cn1c(=O)c2c(nc(CN3CCN(c4ccccc4)CC3)n2CCCc2ccccc2)n(C)c1=O	inactive
Cc1ccc2nc(NC(=O)COC(=O)c3ccncc3)sc2c1	inconclusive: 10.3 µM [activator, partial curve, poor fit]
COc1ccc(F)cc1S(=O)(=O)Nc1ccncc1	inconclusive: 0.0052 µM [activator, full curve, poor fit]
CC1CC(C)CN(C(=O)c2cccc(S(=O)(=O)N(C)c3ccccc3)c2)C1 (stereo not given)	inconclusive: 14.6 µM [falling, partial curve, poor fit]
COc1ccc(C(=O)Nc2ccccc2C(=O)Nc2ccncc2)cc1	inconclusive: 1.03 µM [activator, partial curve, poor fit]
Nc1ccccc1C(=O)N1O[C@@H]2C=C[C@H]1C2	inconclusive: 11.6 µM [activator, partial curve, poor fit]
COC(=O)c1ccc(N2CCCCC2)c(N)c1	inconclusive: 29.1 µM [activator, single point]
